No constants are given. Whether binding was seen depends on the method and setting. Binding seen in cells or lysates may run through a third protein. Some results given as binding are weak or reduced against the parent protein; the word gives no strength.
How the values were obtained:
Experiment in all cases: co-IP; endogenous proteins, N2A lysate (20 mM Tris-HCl pH 7.5, 150 mM NaCl, 1 % NP-40, 10 % glycerol), IP with antibodies against Atxn2, Fus or Tdp-43, protein A or G magnetic beads, immunoblot; IgG control
[1] = biological target: T1, endogenous Atxn2 (mouse (endogenous in N2A)) (UniProt O70305)
T1 sequence: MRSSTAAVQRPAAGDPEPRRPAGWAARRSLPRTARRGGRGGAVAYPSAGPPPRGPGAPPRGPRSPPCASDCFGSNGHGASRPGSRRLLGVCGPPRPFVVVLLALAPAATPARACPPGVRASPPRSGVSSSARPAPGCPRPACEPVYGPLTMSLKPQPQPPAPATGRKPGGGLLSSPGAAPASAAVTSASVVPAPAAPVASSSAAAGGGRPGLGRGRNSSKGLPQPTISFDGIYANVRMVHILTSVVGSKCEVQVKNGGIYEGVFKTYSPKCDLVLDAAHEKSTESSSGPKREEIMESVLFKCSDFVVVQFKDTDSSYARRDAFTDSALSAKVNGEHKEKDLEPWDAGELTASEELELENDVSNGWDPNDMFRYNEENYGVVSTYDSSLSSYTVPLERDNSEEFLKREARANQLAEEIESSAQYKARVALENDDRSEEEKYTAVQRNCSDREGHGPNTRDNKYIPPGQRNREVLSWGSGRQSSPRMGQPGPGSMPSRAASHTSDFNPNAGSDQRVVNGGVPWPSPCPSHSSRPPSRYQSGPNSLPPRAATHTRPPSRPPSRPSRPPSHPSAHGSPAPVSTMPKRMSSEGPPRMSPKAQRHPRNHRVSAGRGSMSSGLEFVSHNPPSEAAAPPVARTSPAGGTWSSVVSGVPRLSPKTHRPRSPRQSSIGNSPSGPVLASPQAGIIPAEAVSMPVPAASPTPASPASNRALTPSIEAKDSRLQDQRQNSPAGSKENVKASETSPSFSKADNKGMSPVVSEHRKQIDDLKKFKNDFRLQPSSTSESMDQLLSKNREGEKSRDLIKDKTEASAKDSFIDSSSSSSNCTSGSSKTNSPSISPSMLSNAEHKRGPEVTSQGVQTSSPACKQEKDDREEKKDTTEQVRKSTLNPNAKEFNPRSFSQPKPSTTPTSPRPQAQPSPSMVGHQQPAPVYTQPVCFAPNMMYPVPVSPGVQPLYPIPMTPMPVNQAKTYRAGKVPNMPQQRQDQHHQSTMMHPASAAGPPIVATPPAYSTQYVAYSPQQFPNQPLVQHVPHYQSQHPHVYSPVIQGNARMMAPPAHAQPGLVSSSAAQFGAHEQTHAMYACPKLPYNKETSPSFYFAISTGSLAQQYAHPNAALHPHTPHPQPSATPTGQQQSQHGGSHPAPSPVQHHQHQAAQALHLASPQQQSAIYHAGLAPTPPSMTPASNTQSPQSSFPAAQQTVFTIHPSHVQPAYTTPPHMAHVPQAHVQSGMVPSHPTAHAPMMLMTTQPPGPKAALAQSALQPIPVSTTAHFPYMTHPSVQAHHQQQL

Chains of the proteins cited; added tags and fusions are not shown. Lines headed by an entry give the natural chain unless they say otherwise; changes in a name come on top.
UniProt P56959: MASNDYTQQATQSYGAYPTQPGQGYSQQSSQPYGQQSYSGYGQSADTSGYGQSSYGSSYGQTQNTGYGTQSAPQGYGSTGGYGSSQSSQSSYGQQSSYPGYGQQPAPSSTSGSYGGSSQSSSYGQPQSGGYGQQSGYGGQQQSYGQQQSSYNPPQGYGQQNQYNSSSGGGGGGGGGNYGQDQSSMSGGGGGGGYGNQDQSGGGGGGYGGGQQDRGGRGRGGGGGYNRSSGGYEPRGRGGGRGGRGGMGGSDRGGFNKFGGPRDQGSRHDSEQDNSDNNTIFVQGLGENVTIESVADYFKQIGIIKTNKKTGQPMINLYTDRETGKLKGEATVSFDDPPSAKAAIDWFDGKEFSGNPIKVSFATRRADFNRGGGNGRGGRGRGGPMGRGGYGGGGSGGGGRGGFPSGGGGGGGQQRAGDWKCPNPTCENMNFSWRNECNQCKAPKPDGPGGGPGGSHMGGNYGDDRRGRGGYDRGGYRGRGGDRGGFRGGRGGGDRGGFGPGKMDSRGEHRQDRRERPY
UniProt Q9EPU0: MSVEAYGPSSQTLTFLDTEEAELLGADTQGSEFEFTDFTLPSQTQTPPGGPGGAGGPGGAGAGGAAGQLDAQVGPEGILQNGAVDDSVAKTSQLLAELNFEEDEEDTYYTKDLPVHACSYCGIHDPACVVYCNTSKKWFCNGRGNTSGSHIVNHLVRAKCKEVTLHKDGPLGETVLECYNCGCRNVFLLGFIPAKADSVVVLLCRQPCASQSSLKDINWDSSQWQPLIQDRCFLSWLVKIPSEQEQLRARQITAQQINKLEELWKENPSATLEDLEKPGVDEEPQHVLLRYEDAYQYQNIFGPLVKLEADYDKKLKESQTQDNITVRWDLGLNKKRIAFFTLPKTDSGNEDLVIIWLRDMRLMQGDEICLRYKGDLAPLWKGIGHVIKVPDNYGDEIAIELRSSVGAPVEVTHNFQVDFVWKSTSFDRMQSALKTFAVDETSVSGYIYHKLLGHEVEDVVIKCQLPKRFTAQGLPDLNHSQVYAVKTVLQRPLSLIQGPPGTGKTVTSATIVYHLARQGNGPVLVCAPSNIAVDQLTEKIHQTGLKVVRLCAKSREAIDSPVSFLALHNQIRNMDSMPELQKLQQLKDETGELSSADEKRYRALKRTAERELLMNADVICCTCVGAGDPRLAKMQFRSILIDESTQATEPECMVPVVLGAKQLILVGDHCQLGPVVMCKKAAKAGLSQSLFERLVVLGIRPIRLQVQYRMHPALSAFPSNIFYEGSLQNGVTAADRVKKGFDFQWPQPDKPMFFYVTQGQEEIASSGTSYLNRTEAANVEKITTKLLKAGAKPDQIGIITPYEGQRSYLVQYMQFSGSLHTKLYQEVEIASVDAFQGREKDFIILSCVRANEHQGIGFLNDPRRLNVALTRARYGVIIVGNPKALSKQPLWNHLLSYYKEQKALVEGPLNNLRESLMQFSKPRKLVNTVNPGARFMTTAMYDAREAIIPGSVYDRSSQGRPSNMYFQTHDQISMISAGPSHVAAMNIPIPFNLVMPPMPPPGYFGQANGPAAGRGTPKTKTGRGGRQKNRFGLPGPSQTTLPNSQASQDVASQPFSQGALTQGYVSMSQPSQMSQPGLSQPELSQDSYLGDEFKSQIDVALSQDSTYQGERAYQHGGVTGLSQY
UniProt O70133: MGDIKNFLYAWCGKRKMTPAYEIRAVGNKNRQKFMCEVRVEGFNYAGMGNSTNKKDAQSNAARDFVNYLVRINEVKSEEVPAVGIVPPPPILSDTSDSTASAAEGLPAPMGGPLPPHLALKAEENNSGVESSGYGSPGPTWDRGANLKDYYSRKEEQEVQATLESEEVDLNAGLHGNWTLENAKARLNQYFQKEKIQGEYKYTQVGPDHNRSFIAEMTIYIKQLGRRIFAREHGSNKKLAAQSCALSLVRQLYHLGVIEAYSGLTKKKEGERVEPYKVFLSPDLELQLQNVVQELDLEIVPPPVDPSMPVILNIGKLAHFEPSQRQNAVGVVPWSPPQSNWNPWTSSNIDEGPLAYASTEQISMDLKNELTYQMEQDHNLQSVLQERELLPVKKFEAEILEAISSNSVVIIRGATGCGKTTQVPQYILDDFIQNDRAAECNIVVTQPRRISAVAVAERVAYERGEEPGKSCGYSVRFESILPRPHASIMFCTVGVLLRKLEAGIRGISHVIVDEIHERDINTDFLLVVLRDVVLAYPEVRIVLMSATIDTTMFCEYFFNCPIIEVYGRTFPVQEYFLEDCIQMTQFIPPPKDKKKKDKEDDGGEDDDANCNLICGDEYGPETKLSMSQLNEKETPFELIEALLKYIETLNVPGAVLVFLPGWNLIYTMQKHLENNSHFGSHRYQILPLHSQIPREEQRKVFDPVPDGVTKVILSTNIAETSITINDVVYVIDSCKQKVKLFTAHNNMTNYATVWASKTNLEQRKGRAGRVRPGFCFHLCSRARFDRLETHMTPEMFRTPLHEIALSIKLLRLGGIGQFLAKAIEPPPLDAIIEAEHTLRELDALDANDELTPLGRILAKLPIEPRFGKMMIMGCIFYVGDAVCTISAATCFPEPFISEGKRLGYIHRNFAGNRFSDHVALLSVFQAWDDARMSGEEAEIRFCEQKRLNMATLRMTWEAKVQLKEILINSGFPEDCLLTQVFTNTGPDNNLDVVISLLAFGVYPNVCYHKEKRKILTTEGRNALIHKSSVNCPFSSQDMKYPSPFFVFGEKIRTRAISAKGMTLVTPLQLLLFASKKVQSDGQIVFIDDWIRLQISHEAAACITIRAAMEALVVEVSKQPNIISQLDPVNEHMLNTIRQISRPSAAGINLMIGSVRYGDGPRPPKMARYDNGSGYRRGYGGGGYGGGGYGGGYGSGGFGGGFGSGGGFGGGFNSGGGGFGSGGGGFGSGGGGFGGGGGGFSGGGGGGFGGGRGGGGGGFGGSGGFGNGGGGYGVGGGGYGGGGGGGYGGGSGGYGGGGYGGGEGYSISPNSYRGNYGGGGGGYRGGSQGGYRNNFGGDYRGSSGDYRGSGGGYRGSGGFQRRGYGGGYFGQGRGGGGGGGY
UniProt Q61701: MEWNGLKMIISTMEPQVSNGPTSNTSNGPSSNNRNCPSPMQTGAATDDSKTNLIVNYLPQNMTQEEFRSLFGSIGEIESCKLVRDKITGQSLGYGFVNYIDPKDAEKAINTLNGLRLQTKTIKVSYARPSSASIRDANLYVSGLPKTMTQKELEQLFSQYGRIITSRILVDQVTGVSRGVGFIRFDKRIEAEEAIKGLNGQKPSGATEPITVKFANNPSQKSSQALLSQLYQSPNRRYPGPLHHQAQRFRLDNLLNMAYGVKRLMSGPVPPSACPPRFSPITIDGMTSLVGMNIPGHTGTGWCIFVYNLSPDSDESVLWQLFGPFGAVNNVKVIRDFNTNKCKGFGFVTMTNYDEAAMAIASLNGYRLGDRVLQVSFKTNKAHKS
UniProt Q6PHQ9: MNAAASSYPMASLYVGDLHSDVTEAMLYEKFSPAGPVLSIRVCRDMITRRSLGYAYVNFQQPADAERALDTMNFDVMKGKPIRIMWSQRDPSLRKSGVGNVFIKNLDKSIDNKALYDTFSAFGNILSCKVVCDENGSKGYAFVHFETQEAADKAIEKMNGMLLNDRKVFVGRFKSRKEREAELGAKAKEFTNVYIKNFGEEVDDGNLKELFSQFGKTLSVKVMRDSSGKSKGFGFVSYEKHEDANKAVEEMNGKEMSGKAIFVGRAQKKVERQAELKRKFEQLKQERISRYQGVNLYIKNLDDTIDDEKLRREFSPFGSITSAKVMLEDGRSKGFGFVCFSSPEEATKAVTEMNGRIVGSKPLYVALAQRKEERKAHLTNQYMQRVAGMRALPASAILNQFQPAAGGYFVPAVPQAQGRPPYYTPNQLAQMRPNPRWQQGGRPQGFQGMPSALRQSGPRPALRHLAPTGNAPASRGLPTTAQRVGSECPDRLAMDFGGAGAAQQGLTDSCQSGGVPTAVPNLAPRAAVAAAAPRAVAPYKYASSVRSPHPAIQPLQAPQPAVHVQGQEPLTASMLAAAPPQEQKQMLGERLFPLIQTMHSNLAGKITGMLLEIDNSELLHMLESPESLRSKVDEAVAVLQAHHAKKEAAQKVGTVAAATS

[2] = biological target: endogenous Tdp-43 (mouse (endogenous in N2A)) (UniProt Q921F2)
[3] = biological target: endogenous Fus (mouse (endogenous in N2A, NSC-34, primary mouse cortical neurons)) (UniProt P56959)

| binding [1] | binding [2] | binding [3] | Substance |
| --- | --- | --- | --- |
| binds | binds | binds | Upf1 (from UniProt Q9EPU0 1-1124) |
| binds | binds | binds | Dhx9 (from UniProt O70133 1-1380) |
| binds | binds | binds | HuD (Elavl4) (from UniProt Q61701 1-385) |
| binds | binds | binds | Pabpc4 (from UniProt Q6PHQ9 1-660) |

— publication PMC4947123
